# Experimental data from PubChem BioAssay AID2685 (National Center for Advancing Translational Sciences (NCATS), 2010).
# The other results are listed elsewhere or left out. Shown are side measurements of this screen, not its main read-out; they come without a call. The list favours compounds with an active or inconclusive main result. The note in brackets gives the kind of curve behind each potency; many fits are weak.
# Assay: qHTS Assay for Lipid Storage Modulators in Drosophila S3 Cells;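 as to cell number change: cells counted by Cell Tracker Red CMTPX staining in the red channel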
# Conditions: BODIPY lipid droplet fluorescence, 18-24 h; for cell number change: measured here: cell count max response, cells fed with added oleic acid
# Outline: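 Laser-scanning cytometry quantifies lipid droplet accumulation (500–530 nm total intensity; droplet/cell object ratio) in oleic acid-fed (400 uM added) Drosophila S3 cells treated with a concentration series. 20 uM Triacsin C defined 100% inhibition.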
# [1] = measured here: lipid fluorescence (Fed channel) AC50, cells fed with added oleic acid
# [2] = measured here: cell number channel AC50, cells fed with added oleic acid
Compound,cell number change,AC50 [1],AC50 [2]
Cc1ccc(Cn2nc(C)c(NC(=O)CSc3nc4c(c(C(F)(F)F)n3)CCc3ccccc3-4)c2C)cc1,2.65%,"0.058 µM [rising, full curve]",
Cc1ccc(CN2CCC(CNC(=O)C3CCCN(c4ncnc5c4nc4n5CCCCC4)C3)CC2)cc1 (stereo unspecified),5.81%,"29.1 µM [rising, single point]",
OCc1cc(Br)ccc1OCc1nc2ccccc2s1,22.3%,,
FC(F)(F)c1cnc(-c2cnc(-c3ccncc3)nc2)c(Cl)c1,,"0.58 µM [rising, single point]",
CC(C)c1ccc(NC(=O)C2C3C=CC4(O3)C2C(=O)N(CCCN2CCOCC2)C4C(=O)NC2CCCCC2)cc1 (stereo unspecified),15.8%,"29.1 µM [falling, single point]",
Cc1ccc(C)c2[nH]c(=O)c(CCNS(=O)(=O)c3ccccc3)cc12,,,"0.092 µM [rising, full curve, poor fit]"
NS(=O)(=O)c1cc(C(=O)OCC(=O)NNC(=O)c2ccccc2)ccc1Cl,-43.4%,"0.184 µM [falling, full curve]","2.31 µM [falling, full curve]"
N#CC1=C(N)NC(SCc2ccc(Br)cc2)=C(C#N)C12CCCCC2,-40.1%,"18.4 µM [falling, single point]","18.4 µM [falling, single point]"
C#CCn1c(S(=O)(=O)Cc2ccccc2Cl)nc(-c2ccccc2)c1-c1ccccc1,,"0.82 µM [rising, full curve]","0.92 µM [rising, partial curve]"
O=C(NCCCn1ccnc1)/C(=C\c1cccs1)NC(=O)c1ccco1,2.25%,"29.1 µM [falling, single point]",
CCCCNC(=S)N/N=C/c1ccc(C#N)cc1,-11.6%,,"0.517 µM [rising, full curve]"
Cc1cccc(Cn2cc(/C=C/[N+](=O)[O-])c3ccccc32)c1,-14.2%,"4.61 µM [falling, full curve, poor fit]",
O=C(c1ccc(NC(=S)NCc2ccco2)cc1)N1CCOCC1,,"0.00461 µM [falling, full curve, poor fit]",
Cc1cc(-c2ccccc2)n(-c2ccc(C(=O)NC(C)C)cc2)n1,17.2%,,"0.206 µM [rising, full curve, poor fit]"
CCCCN(C)CCNC(=O)C1CCCN(S(=O)(=O)c2cccc3nsnc23)C1 (stereo unspecified),6.05%,"2.59 µM [falling, partial curve]",
CCN(CC)S(=O)(=O)c1ccc(/C=C/C(=O)Nc2ccc(Br)cc2F)cc1,-6.51%,"7.31 µM [falling, single point]",
CCOC(=O)c1cccnc1NC(=O)c1ccccc1,29.5%,"3.66 µM [rising, single point]",
COc1ccc(NC(=O)COC(=O)c2ccc(NS(=O)(=O)/C=C/c3ccccc3)cc2)cc1,12.7%,,
COc1ccc(C)cc1NC(=O)C(Sc1nncn1C)c1ccccc1 (stereo unspecified),57.2%,,"20.6 µM [rising, single point]"

Compound,cell number change,AC50 [1],AC50 [2]
CCC(C)CCN1CCN=C1N(C)C (stereo unspecified),19.9%,,
COc1ccc(/C=C(\NC(=O)c2ccc(C)cc2)C(=O)Nc2c(C)n(C)n(-c3ccccc3)c2=O)cc1,7.47%,"7.31 µM [falling, partial curve, poor fit]",
Cn1cnnc1SCC(=O)NCc1ccccc1,,,"0.164 µM [falling, full curve, poor fit]"
CCN(CC)CCN(Cc1cc2cc3c(cc2[nH]c1=O)OCO3)C(=S)NCCCOC,-11.8%,"0.58 µM [falling, single point]","6.51 µM [falling, single point]"
CSc1cccc(NC(=S)N(CCCN2CCCC2)Cc2cccn2Cc2ccc(Cl)cc2)c1,-60.2%,"29.1 µM [falling, single point]","29.1 µM [falling, single point]"
Cc1ncc(CN2CCCC(C(=O)Nc3ccc(-c4cscn4)cc3)C2)cn1 (stereo unspecified),7.23%,"2.91 µM [rising, single point]",
CCc1c(C(=O)N/N=C/c2cn[nH]c2-c2ccc(F)cc2)csc1C,12.9%,"2.91 µM [rising, full curve]",
Cc1cc(C(=O)N2CCN(c3ccccc3)CC2)c(C)o1,-9.5%,"1.46 µM [falling, full curve, poor fit]",
CCCn1c(SCC(=O)N(C)CC(=O)Nc2ccc(C)cc2)n[nH]c1=O,-1.2%,"4.11 µM [rising, full curve]",
Cc1ccc(C(=O)CN2C(=O)NC3(CCc4ccccc43)C2=O)c(C)c1 (stereo unspecified),62.7%,,"20.6 µM [rising, single point]"
CCC(C)c1ccccc1NC(=O)c1cccnc1 (stereo unspecified),,,"0.651 µM [rising, single point]"
O=c1[nH]c(CSc2ncnc3sc(-c4ccccc4)cc23)nc2ccccc12,26.6%,"29.1 µM [rising, single point]",
CC(C)CNC(=O)[C@H](Cc1ccccc1)NC(=O)c1ccco1,58.6%,"6.51 µM [falling, single point]",
COc1cccc(C(=O)Nc2ccc(Oc3cccc(C(F)(F)F)c3)nc2)c1,-47.8%,"18.4 µM [falling, single point]","29.1 µM [falling, single point]"
CCc1ccc(OCC(=O)Nc2cccc3c2CCCC3)cc1,-32.5%,"0.146 µM [rising, partial curve, poor fit]","29.1 µM [falling, single point]"
O=C1CCCN1C(=O)CSc1nnnn1-c1ccccc1,20.1%,"29.1 µM [rising, single point]",
CC(Sc1nnc(C2CC2)n1C1CC1)C(=O)NCc1cccs1 (stereo unspecified),-50%,"0.00411 µM [falling, full curve, poor fit]","1.16 µM [falling, partial curve]"
CC(C)(C)CN1CCNC(=O)C1CC(=O)N1CCN(c2ccccc2)CC1 (stereo unspecified),18.3%,"4.11 µM [rising, partial curve, poor fit]",
CC(COc1ccc(C(C)C)cc1)NC(=O)c1ccc(Br)o1 (stereo unspecified),-12%,"3.26 µM [rising, partial curve, poor fit]",

# Individual results from the list.
# Value for Cc1ccc(C)c2[nH]c(=O)c(CCNS(=O)(=O)c3ccccc3)cc12 under AC50 [2]: 0.092 µM [rising, full curve, poor fit]
# Value for Cc1cc(C(=O)N2CCN(c3ccccc3)CC2)c(C)o1 under cell number change: -9.5%

# The listing continues.

Compound,cell number change,AC50 [1],AC50 [2]
Cc1nc2ccc(C(=O)O)cc2[nH]1,-69.1%,,"23.1 µM [falling, single point]"
O=C(NCc1ccc(N2CCCC2=O)cc1)c1cnccn1,-62%,"6.51 µM [falling, partial curve]","5.17 µM [falling, full curve, poor fit]"
COc1cc(C(=O)N/N=C/c2cn(Cc3cccc(F)c3)c3ccccc23)ccc1O,-48.5%,,"25.9 µM [falling, single point]"
CN1C(=O)/C(=C/c2ccc(C(F)(F)F)cc2)Sc2ccc(C(=O)N3CCN(c4ccccn4)CC3)cc21,64.9%,"5.8 µM [falling, single point]",
Cc1ccc(C)c(-n2nnnc2SCC(=O)NCCC2=CCCCC2)c1,,,"4.11 µM [falling, partial curve, poor fit]"
O=S(=O)(Cc1cc(Cl)nc(-c2ccncc2)n1)c1ccccc1,-58.1%,"3.26 µM [falling, full curve]","4.11 µM [falling, full curve, poor fit]"
CC(C)CC(=O)Nc1nnc(SCC(=O)NCC2CCCO2)s1 (stereo unspecified),-10.9%,,
Cc1cc(C(=O)CSc2n[nH]c(N)n2)c(C)n1C1CC1,-1.46%,,
NC(=O)c1ccsc1NC(=O)CS(=O)(=O)c1ccccc1,-27.5%,,"1.64 µM [rising, partial curve]"
COc1cc(Cl)ccc1OCc1cc(C(=O)N2CCCCCCC2)no1,-21.5%,"5.17 µM [rising, partial curve]",
COc1ccc(NC(=O)CSc2ncn[nH]2)c([N+](=O)[O-])c1,,"1.46 µM [falling, partial curve]",
COc1cccc(-n2c(Cn3nc(C(F)(F)F)cc3C)n[nH]c2=S)c1,32.2%,"23.1 µM [rising, single point]","5.8 µM [rising, partial curve]"
O=[N+]([O-])C1C(c2ccccc2)=NOC1c1ccccc1O (stereo unspecified),-8.55%,"32.6 µM [falling, single point]",
CCN(CC)S(=O)(=O)c1cccc(C(=O)NC(C(=O)Nc2nnc(C)s2)C(C)C)c1 (stereo unspecified),43.7%,"6.51 µM [rising, single point]","11.6 µM [rising, partial curve, poor fit]"
C=CCn1c(Cc2cccc3ccccc23)n[nH]c1=S,-11.5%,"14.6 µM [rising, partial curve]",
NS(=O)(=O)c1ccc(CCNC(=O)CSc2ccsc2[N+](=O)[O-])cc1,-1.96%,"6.51 µM [rising, partial curve]","4.61 µM [rising, single point]"
CN(C)CCN(C(=O)c1ccc2ccccc2c1)c1nc2ccc(Br)cc2s1,30.1%,,"2.91 µM [rising, partial curve, poor fit]"
Cc1ccc(S(=O)(=O)N/N=C\c2ccc([N+](=O)[O-])o2)cc1,-76%,"20.6 µM [falling, partial curve, poor fit]","20.6 µM [falling, partial curve, poor fit]"
COc1ccc2cc(Br)ccc2c1CC(=O)NC(C)C,30%,"3.26 µM [rising, full curve, poor fit]","32.6 µM [rising, single point]"

# Grouped by structure: those above containing a cyano group.
Compound,cell number change,AC50 [1],AC50 [2]
N#CC1=C(N)NC(SCc2ccc(Br)cc2)=C(C#N)C12CCCCC2,-40.1%,"18.4 µM [falling, single point]","18.4 µM [falling, single point]"
CCCCNC(=S)N/N=C/c1ccc(C#N)cc1,-11.6%,,"0.517 µM [rising, full curve]"
